These are yes or no findings as the source states them, for the method shown. In cells and extracts the contact can be indirect. For part of these data: A result given as binding can be weak or reduced; the word gives no strength.
What was measured:
Experiment in all cases: pull-down; purified MBP fusion proteins (5 ug) on amylose magnetic beads, washed with CHAPS lysis buffer + 1 M NaCl; incubated overnight at 4°C with S2R+ cell lysates expressing the kinase in CHAPS lysis buffer; six washes; western blot (NbVHH05-hIgG or anti-HA); only the target purified
[1] = target: MBP-tagged Gooseberry homeodomain fragment, 5A mutant (Drosophila melanogaster)
[2] = target: MBP-tagged Fushi tarazu homeodomain fragment, wild type (Drosophila melanogaster) (UniProt P02835)
[3] = target: MBP-tagged Gooseberry homeodomain fragment, wild type (Drosophila melanogaster) (UniProt P09082)

By UniProt entry, the sequences of proteins in these tests, tags left out. Where a name states a change or a piece, a line headed by the entry shows the natural chain unless it says otherwise.
UniProt P02835: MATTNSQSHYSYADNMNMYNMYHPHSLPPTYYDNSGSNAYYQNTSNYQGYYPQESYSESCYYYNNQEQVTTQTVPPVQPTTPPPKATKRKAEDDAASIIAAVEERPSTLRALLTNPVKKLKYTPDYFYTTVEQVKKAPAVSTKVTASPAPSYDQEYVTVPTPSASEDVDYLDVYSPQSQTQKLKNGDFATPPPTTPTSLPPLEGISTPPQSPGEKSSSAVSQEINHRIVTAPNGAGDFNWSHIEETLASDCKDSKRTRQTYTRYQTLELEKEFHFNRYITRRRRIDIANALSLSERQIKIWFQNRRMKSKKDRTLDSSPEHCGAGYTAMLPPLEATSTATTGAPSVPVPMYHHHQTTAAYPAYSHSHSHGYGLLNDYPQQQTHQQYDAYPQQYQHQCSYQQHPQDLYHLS
UniProt P09082: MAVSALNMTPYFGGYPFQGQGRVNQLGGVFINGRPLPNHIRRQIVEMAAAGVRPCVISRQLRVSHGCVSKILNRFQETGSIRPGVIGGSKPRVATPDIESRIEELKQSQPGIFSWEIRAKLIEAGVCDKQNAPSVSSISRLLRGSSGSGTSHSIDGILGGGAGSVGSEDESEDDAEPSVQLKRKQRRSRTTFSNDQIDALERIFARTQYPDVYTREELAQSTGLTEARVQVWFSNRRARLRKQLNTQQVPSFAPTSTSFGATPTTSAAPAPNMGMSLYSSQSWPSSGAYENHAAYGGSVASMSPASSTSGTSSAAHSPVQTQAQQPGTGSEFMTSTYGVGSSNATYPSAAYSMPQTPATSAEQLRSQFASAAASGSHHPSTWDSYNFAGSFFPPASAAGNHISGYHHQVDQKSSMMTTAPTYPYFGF

B1: aPKC-VHH05-3xHA (enzyme, UniProt A1Z9X0 1-606)
chain: MQKMPSQILNDGSSVSLNSASMNMANTPNSITVKTAYNGQIIITTINKNISYEELCYEIRNICRFPLDQPFTIKWVDEENDPCTISTKMELDEAIRLYEMNFDSQLVIHVFPNVPQAPGLSCDGEDRSIYRRGARRWRKLYRVNGHIFQAKRFNRRAFCAYCQDRIWGLGRQGFKCIQCKLLVHKKCHKLVQKHCTDQPEPLVKERAEESSDPIPVPLPPLPYEAMSGGAEACETHDHAHIVAPPPPEDPLEPGTQRQYSLNDFELIRVIGRGSYAKVLMVELRRTRRIYAMKVIKKALVTDDEDIDWVQTEKHVFETASNHPFLVGLHSCFQTPSRLFFVIEFVRGGDLMYHMQRQRRLPEEHARFYAAEISLALNFLHEKGIIYRDLKLDNVLLDHEGHIKLTDYGMCKEGIRPGDTTSTFCGTPNYIAPEILRGEDYGFSVDWWALGVLLYEMLAGRSPFDLAGASENPDQNTEDYLFQVILEKTIRIPRSLSVRAASVLKGFLNKNPADRLGCHRESAFMDIVSHPFFKNMDWELLERKQVTPPFKPRLDSDRDLANFPPEFTGEAVQLTPDDDHVIDNIDQSEFEGFEYVNPLLMSLEDCV
**Q.** B1 was tested. Which binding [1] did it give?
**A.** Its binding is “no binding”.

**Q.** What about the binding [2] of the same binder?
**A.** The binding was “binds”.

**Q.** And the binding [3]?
**A.** The binding was “binds”.
